We go through 69 molecules from patent US20230365651A1.

These are yes or no findings as the source states them, for the method shown. Binding can be weak; no strength is given.

One assay addresses HLA-A*03:01 (human). As to the kind of experiment: UV peptide exchange, anti-b2m ELISA. (In an ELISA, binding on a coated surface is turned into a signal by an enzyme label.)
Consider KTLELRVAY [… (SEQ ID NO: 259)], for which the binding result is reported as “binds”.

For the molecule RVNAIPFTY [… (SEQ ID NO: 273)], the binding result is reported as “binds”.

Regarding STTFPTLTK [… (SEQ ID NO: 275)], the binding entry was “binds”.

In the case of AAFVPLLLK [… (SEQ ID NO: 106)], the binding result is listed as “binds”.

On to RTEEVLLTFK [… (SEQ ID NO: 256)], for which the binding entry is on record as “binds”.

In the case of RLKGDAWVYK [… (SEQ ID NO: 269)], the binding result is on record as “binds”.

Turning to KTFTIKRFLAK [… (SEQ ID NO: 109)], the binding entry was “binds”.

For VTADHSHVF [… (SEQ ID NO: 257)], the binding result is reported as “binds”.

Turning to QIHDHVNPK [… (SEQ ID NO: 265)], the binding entry is “binds”.

In the case of HTFGLFYQR [… (SEQ ID NO: 261)], the binding result is “binds”.

On to VTDLISPRK [… (SEQ ID NO: 267)], for which the binding result is “binds”.

In the case of GTNTVILEY [… (SEQ ID NO: 260)], the binding result is “binds”.

Take RSRLNPLVQR [… (SEQ ID NO: 262)]: the binding entry was “binds”.

For the molecule KTFPASTVF [… (SEQ ID NO: 274)], the binding result is “binds”.

As for RQPERTILRPR [… (SEQ ID NO: 272)], the binding result is listed as “binds”.

For the molecule RVFTSSIKTK [… (SEQ ID NO: 101)], the binding entry was “binds”.

For VLADSVTTK [… (SEQ ID NO: 104)], the binding result is “binds”.

On to RMFADDLHNLNK [… (SEQ ID NO: 271)], for which the binding entry is reported as “binds”.

For the molecule TTALKTTSR [… (SEQ ID NO: 277)], the binding result is listed as “binds”.

On to RLFTSPIMTK [… (SEQ ID NO: 100)], for which the binding result was “binds”.

With SVLTSSLVK [… (SEQ ID NO: 102)], the binding result is listed as “binds”.

Take GAYAHTVNR [… (SEQ ID NO: 258)]: the binding entry is reported as “binds”.

For the molecule RLFSWLVNR [… (SEQ ID NO: 105)], the binding entry is listed as “binds”.

RLQEWKALK [… (SEQ ID NO: 107)]: the binding entry is on record as “binds”.

With SAAPPSYFR [… (SEQ ID NO: 110)], the binding result is reported as “binds”.

As to AVFNPRFYRTY [… (SEQ ID NO: 270)], the binding result is listed as “binds”.

As for ISYSGQFLVK [… (SEQ ID NO: 266)], the binding entry was “binds”.

For VSKTTGMEF [… (SEQ ID NO: 276)], the binding entry is “binds”.

With SSSSATISK [… (SEQ ID NO: 263)], the binding entry is given as “binds”.

With AIKVIPTVFK [… (SEQ ID NO: 264)], the binding entry is on record as “binds”.

In a further assay the target is HLA-B*44:02 (human). Briefly: UV peptide exchange, anti-b2m ELISA.
Take LELPPILVY [… (SEQ ID NO: 411)]: the binding result is “binds”.

Take KEAIREHQM [… (SEQ ID NO: 434)]: the binding entry was “binds”.

For AEHEGVSVL [… (SEQ ID NO: 407)], the binding entry is “binds”.

As to SDSQVRAF [SDSQVRAF (SEQ ID NO: 433)], the binding result is “binds”.

As to REEDAALFKAW [… (SEQ ID NO: 415)], the binding result is “binds”.

In the case of TEFPLFSAA [… (SEQ ID NO: 424)], the binding result is given as “binds”.

Regarding NEIWTHSY [NEIWTHSY (SEQ ID NO: 405)], the binding entry is on record as “binds”.

As to HESSSHHDL [… (SEQ ID NO: 427)], the binding result is recorded as “binds”.

For the molecule SEEETRVVF [… (SEQ ID NO: 416)], the binding entry is “binds”.

Turning to AEHFSMIRA [… (SEQ ID NO: 417)], the binding entry is recorded as “binds”.

On to LEKALQVF [LEKALQVF (SEQ ID NO: 408)], for which the binding result is “binds”.

Take GEPATTVSL [… (SEQ ID NO: 421)]: the binding entry was “binds”.

With AEQDPDELNKA [… (SEQ ID NO: 431)], the binding result is on record as “binds”.

On to REEFVSIDHL [… (SEQ ID NO: 435)], for which the binding result was “binds”.

Regarding SFEQVVNELF [… (SEQ ID NO: 398)], the binding entry is on record as “binds”.

Turning to REGDTVQLL [… (SEQ ID NO: 397)], the binding result is recorded as “binds”.

As for RELANDELIL [… (SEQ ID NO: 402)], the binding entry is recorded as “binds”.

For QEILTQVKQ [… (SEQ ID NO: 412)], the binding entry is “binds”.

For RELLHLVTL [… (SEQ ID NO: 399)], the binding entry is recorded as “binds”.

With EDAALFKAW [… (SEQ ID NO: 414)], the binding entry is “binds”.

For FEDAQGHIW [… (SEQ ID NO: 418)], the binding entry is on record as “binds”.

In the case of EEAQWVRKY [… (SEQ ID NO: 403)], the binding entry is recorded as “binds”.

For GEIEIHLL [GEIEIHLL (SEQ ID NO: 400)], the binding result is recorded as “binds”.

With SEDPSKLEA [… (SEQ ID NO: 410)], the binding entry was “binds”.

As to SEVPTGTTA [… (SEQ ID NO: 423)], the binding entry is “binds”.

SEVPLPMAI [… (SEQ ID NO: 425)]: the binding result was “binds”.

With REASGLLSL [… (SEQ ID NO: 396)], the binding entry is “binds”.

In the case of SEVDSPNVL [… (SEQ ID NO: 438)], the binding result is “binds”.

Consider REKFIASVI [… (SEQ ID NO: 429)], for which the binding result is given as “binds”.

In the case of REPGDIFSEL [… (SEQ ID NO: 436)], the binding result is listed as “binds”.

As to IEALSGKIEL [… (SEQ ID NO: 413)], the binding result is “binds”.

With EDGRLVIEF [… (SEQ ID NO: 406)], the binding entry is given as “binds”.

Regarding PEKTTHSF [PEKTTHSF (SEQ ID NO: 426)], the binding result is “binds”.

Consider TEAVVTNEL [… (SEQ ID NO: 437)], for which the binding entry is “binds”.

Consider FESHSTVSA [… (SEQ ID NO: 420)], for which the binding result is given as “binds”.

For REFVLSKGDAGL [… (SEQ ID NO: 409)], the binding entry is reported as “binds”.

As to SETTFSLIF [… (SEQ ID NO: 422)], the binding result is given as “binds”.

NEAIMHQY [NEAIMHQY (SEQ ID NO: 404)]: the binding result was “binds”.

For the molecule HEFGHVLGL [… (SEQ ID NO: 419)], the binding result is “binds”.
